The values below are quoted from earlier work in article PMC7648750, “In vitro and in vivo BNCT investigations using a carborane containing sulfonamide targeting CAIX epitopes on malignant pleural mesothelioma and breast cancer cells” (Scientific Reports, 2020).

For orientation: IC50 means the point on the concentration scale where inhibition reaches its midpoint.

The test system of this data set is MCF7 cells. As to conditions: 48 h incubation; cited from earlier work.

Take `CC(=O)Nc1nnc(S(N)(=O)=O)s1` [AZ, 5-acetamido-1,3,4-thiadiazole-2-sulfonamide, reference compound]: the IC50 is more than 800 µM.
